No constants are given. Whether binding was seen depends on the method and setting. Binding seen in cells or lysates may run through a third protein. Some entries that bind do so weakly or less than the wild type.

Amino acid sequences for entries named in this document (tags omitted). Residues count along the entry.
UniProt Q02248, residues 2-781: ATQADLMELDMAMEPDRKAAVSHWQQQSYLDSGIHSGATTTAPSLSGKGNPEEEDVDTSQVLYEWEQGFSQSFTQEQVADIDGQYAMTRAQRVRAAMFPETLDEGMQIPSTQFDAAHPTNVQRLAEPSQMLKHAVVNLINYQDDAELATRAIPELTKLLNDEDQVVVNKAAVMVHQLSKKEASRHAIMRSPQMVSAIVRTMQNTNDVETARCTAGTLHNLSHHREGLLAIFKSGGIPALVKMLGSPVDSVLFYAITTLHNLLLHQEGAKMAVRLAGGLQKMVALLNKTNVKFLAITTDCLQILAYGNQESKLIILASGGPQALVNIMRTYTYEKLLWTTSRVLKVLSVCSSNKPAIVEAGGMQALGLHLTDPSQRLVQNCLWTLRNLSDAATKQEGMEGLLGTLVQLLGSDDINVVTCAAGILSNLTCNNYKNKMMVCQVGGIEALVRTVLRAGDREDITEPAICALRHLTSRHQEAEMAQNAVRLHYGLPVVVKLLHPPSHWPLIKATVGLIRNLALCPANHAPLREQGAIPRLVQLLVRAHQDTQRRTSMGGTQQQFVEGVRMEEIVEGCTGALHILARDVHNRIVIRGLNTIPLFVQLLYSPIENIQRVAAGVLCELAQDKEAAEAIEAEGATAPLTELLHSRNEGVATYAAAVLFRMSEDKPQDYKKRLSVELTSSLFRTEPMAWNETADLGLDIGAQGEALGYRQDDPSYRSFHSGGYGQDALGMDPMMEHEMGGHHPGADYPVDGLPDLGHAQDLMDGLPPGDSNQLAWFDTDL
UniProt P37238: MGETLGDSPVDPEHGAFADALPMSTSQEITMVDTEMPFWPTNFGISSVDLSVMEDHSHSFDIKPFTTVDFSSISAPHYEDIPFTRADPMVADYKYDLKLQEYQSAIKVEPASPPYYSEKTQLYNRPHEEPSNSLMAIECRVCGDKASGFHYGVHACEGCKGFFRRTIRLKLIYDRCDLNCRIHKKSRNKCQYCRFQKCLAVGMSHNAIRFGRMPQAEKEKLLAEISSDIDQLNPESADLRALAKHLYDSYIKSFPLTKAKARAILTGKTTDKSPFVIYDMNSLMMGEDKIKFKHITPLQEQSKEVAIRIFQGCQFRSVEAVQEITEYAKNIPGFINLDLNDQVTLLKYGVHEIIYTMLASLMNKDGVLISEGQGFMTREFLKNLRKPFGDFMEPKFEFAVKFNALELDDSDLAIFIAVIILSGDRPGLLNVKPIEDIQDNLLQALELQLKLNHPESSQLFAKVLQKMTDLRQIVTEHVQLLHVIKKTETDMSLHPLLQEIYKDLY

For one substance, binding results are on record in patent US20190316208A1.

The target of experiment [1] is β-catenin (mouse) (UniProt Q02248). Kind of experiment: endogenous co-immunoprecipitation in primary DCs, restated in the discussion.
Experiment [2] shares this target. The experiment can be described thus: endogenous co-immunoprecipitation in primary DCs: β-catenin IP, PPAR-γ western blot. Background: In western blotting, separated proteins are transferred to a membrane and probed.

Consider “peroxisome proliferator-activated receptor-γ (PPAR-γ) (from UniProt P37238 1-505)”, for which the binding entry with β-catenin (mouse) [1] and with β-catenin (mouse) [2] was “binds” each time.
